In the experiment the target is BteA (full length, residues 1-658) (B. bronchiseptica) (UniProt L0PR31). The experiment can be described thus: SDS-PAGE of the purified protein (SDS-resistant oligomers); fractions of the Ni2+-affinity purification resolved by SDS-PAGE; high-molecular weight bands beside the monomer band; both purified.

Results are given in words; binding and its absence hold for the method and conditions named. Some entries that bind do so weakly or less than the wild type.

Consider one substance from article PMC3559503.

As for “BteA (full length, residues 1-658) (from UniProt L0PR31 1-657)”, the binding entry was “binds”.
